Assay results taken from the supplement of paper PMC12823440, “Inhibitors supercharge kinase turnover through native proteolytic circuits” (Nature, 2025).
Structures can show the parent of a compound that is named as a salt. This is one part of the list. The calls rarely recur for the same compound in another form.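 Kinases were expressed as nanoluciferase fusions in K562 cells and luminescence was read every 4 h between 2 and 18 h as percent of control, DMSO set to 100% and a positive control to 0%. A time point counts as decreased when the signal drops significantly (2 sigma). The hit call is the authors' own, does not follow from the count of time points alone, and its rule is not shown.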

Sequences of proteins named here, by UniProt entry; tags and fusion partners are left off.
UniProt Q00534, whole entry: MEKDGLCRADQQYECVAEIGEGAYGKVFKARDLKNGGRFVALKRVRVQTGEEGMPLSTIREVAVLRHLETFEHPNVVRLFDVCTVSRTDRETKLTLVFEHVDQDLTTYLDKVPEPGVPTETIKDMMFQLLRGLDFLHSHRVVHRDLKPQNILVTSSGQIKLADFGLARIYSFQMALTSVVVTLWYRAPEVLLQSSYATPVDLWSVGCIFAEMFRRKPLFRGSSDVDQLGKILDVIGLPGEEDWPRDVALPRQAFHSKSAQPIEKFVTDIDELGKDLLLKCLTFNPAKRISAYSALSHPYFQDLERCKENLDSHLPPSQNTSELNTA

The compounds below were run against CDK6 (UniProt Q00534) (assay: number of time points (of 5) at which kinase-Nluc abundance scored as decreased, DMSO-normalised (count); higher = more persistent destabilization). Details: K562; 2-18 h.

Row | Compound | number of time points
1 | O=C1NC(=O)C(c2cn(-c3ccccc3)nc2-c2ccc(F)cc2)N1 (centres undefined) (10 µM) | 0
2 | O=[N+]([O-])c1ccc(Sc2cccc[n+]2[O-])c2nonc12 (2.5 µM) | 0
3 | COc1nc(-c2ccnc(NC(=O)C3CC3)c2)sc1C(N)=O [GSK-3β inhibitor 2] (10 µM) | 0
4 | CCN1/C(=C/C(C)=O)Sc2ccc(OC)cc21 (10 µM) | 0
5 | Nc1cccc(S(=O)(=O)N2CCCN(S(=O)(=O)c3ccc4c(c3)OCCO4)CC2)c1 (10 µM) | 0
6 | Nc1ncc(-c2ccc(C(=O)N3CCNCC3)cc2)nc1-c1ccc(C(F)(F)F)cc1 (10 µM) | 0
7 | CC[C@H](Nc1ncnc2[nH]cnc12)c1oc2ccccc2c(=O)c1-c1cccc(F)c1 [Tenalisib] (10 µM) | 0
8 | CC(C)(O)[C@@H]1CC[C@](C)([C@H]2[C@@H](O)C[C@@]3(C)[C@@H]4C[C@H](O[C@@H]5O[C@H](CO)[C@@H](O)[C@H](O)[C@H]5O)[C@H]5C(C)(C)[C@@H](O[C@@H]6OC[C@@H](O)[C@H](O)[C@H]6O[C@@H]6O[C@H](CO)[C@@H](O)[C@H](O)[C@H]6O)CC[C@@]56C[C@@]46CC[C@]23C)O1 [Astragaloside VI] (10 µM) | 0
9 | CC(=O)Nc1nc2ccc(-c3cnc(C)c(NC(=O)OC4CCCCC4)c3)cc2s1 (10 µM) | 0
10 | COc1ccccc1/C=C1\C(=O)Nc2ccccc21 (10 µM) | 0
11 | CC1(N)CCN(c2cnc3c(-c4cccc(Cl)c4Cl)[nH]nc3n2)CC1 (2.5 µM) | 0
12 | CC(C)C[C@H](NC(=O)[C@H](CCCCN)NC(=O)[C@H](CO)NC(=O)[C@@H](N)CC(C)C)C(N)=O [LSKL, Inhibitor of Thrombospondin (TSP-1) (TFA)] (10 µM) | 0
13 | CN1CC[C@H](c2c(O)cc(O)c3c(=O)cc(-c4ccc(C(F)(F)F)cc4Cl)oc23)[C@H]1CO [(2S,3R)-Voruciclib (hydrochloride)] (2.5 µM) | 0
14 | C[C@H]1[C@H](OC(=O)CCC(=O)O)O[C@@H]2O[C@@]3(C)CC[C@H]4[C@H](C)CC[C@@H]1[C@@]24OO3 [Artesunate] (2.5 µM) | 0
15 | c1ccc(-c2nn3c(c2-c2ccnc4cc(OCCN5CCOCC5)ccc24)CCC3)nc1 (10 µM) | 0
16 | COc1cc(N2CCC(N(C)C)CC2)ccc1Nc1ncc(Cl)c(Nc2ccccc2P(C)(C)=O)n1 (2.5 µM) | 0
17 | Cc1ccc(-c2ncn(-c3ccc(Nc4nccc(-c5cccc(N6CCOCC6)c5)n4)cc3)n2)cn1 (10 µM) | 0
18 | CC[C@@H]1[C@H](F)C(=O)N[C@@H]1COc1nccc2cc(C(N)=O)c(OC)cc12 (10 µM) | 0
19 | O=C1NC(=O)/C(=C/c2ccc(-c3ccc(F)cc3O)o2)S1 (10 µM) | 0
20 | Cc1cc(Nc2cc(CN3CCOCC3)c3nc(C)c(Cc4ccc(Cl)cc4F)n3n2)n[nH]1 [Gandotinib] (2.5 µM) | 0

Row | Compound | number of time points
21 | CN(C)C(=O)c1ccc(S(=O)(=O)c2ccc(NC(=O)[C@@](C)(O)C(F)(F)F)c(Cl)c2)cc1 (10 µM) | 0
22 | CCc1cccc(CC)c1NC(=O)c1nn(C)c2c1CCc1cnc(Nc3ccc(C(=O)NC4CCN(C)CC4)cc3OC(F)(F)F)nc1-2 (2 µM) | 0
23 | O=C(Nc1ccc(Cl)cc1)C1CCCN(C(=O)c2cccc(-c3ccco3)c2)C1 (centres undefined) (2.5 µM) | 0
24 | CN(C)Cc1cccc(N=C(c2ccccc2)c2c(O)[nH]c3cc(C(=O)N(C)C)ccc23)c1 (10 µM) | 0
25 | OCCN(CCO)c1ccc(C(c2ccc(Cl)cc2)c2ccc(N(CCO)CCO)cc2)cc1 (10 µM) | 0
26 | CCOc1ccccc1C=C1C(=O)Nc2ccccc21 (10 µM) | 0
27 | COc1ncc(Nc2ncc([C@@H](C)N3CCN(S(C)(=O)=O)CC3)cc2-c2nc(C)nc(N)n2)cc1F (10 µM) | 0
28 | O=C(CO)N1CCC(c2n[nH]c(-c3ccc(Cl)cc3)c2-c2ccncn2)CC1 (10 µM) | 0
29 | Cn1ncc(Cl)c1-c1cc(C(=O)N[C@H](CN)Cc2ccc(F)c(F)c2)sc1Cl (10 µM) | 0
30 | O=c1ccc2ccc(O)c(O)c2o1 [Daphnetin] (10 µM) | 0
31 | O=C(Nc1ccc(Cl)c(Cl)c1)Nc1ccc2nnsc2c1 (10 µM) | 0
32 | O=C(O)c1cc(O)c2c(c1)[C@@H]([C@H]1c3cc(C(=O)O)cc(O)c3C(=O)c3c(O[C@@H]4O[C@H](CO)[C@@H](O)[C@H](O)[C@H]4O)cccc31)c1cccc(O[C@@H]3O[C@H](CO)[C@@H](O)[C@H](O)[C@H]3O)c1C2=O [Sennoside B] (2.5 µM) | 0
33 | O=c1nc(N2CCOCC2)oc2c(-c3cccc4c3sc3ccccc34)cccc12 (10 µM) | 0
34 | O=C(Nc1cccc(-c2nncn2C2CC2)c1)c1cc(-n2cnc(C3CC3)c2)ccn1 (10 µM) | 0
35 | CSc1ccc(CN2CCCC(Nc3ccc4[nH]ncc4c3)C2)cc1 (centres undefined) [Rho-Kinase-IN-1] (10 µM) | 0
36 | Oc1ccccc1C(=S)N1CCCC1 (10 µM) | 0
37 | COC(=O)N[C@@H](C)CNc1nccc(-c2cn(C(C)C)nc2-c2cc(Cl)cc(NS(C)(=O)=O)c2F)n1 [Encorafenib] (10 µM) | 0
38 | C=CS(=O)(=O)c1ccc(Nc2nc(OCC3CCCCC3)c3[nH]cnc3n2)cc1 (2.5 µM) | 0
39 | O=c1[nH]ccc2cc(OC3CCNCC3)ccc12 (10 µM) | 0

Retrieved by compound from the list above:
Row | Compound | number of time points
29 | Cn1ncc(Cl)c1-c1cc(C(=O)N[C@H](CN)Cc2ccc(F)c(F)c2)sc1Cl (10 µM) | 0
26 | CCOc1ccccc1C=C1C(=O)Nc2ccccc21 (10 µM) | 0
